Source: ChEMBL document CHEMBL4316593 (Eur J Med Chem, 2019)
Further values from the same series stand in other lists.

Experiments:
Assay type in all cases: cell-based
Settings in all cases: U-87MG ATCC
[1] = Inhibition of RTK/PI3K/AKT/mTOR signaling in human U87 cells assessed as down regulation of SBSN gene expression at cytotoxic IC50 measured after 48 hrs relative to control
[2] = Inhibition of RTK/PI3K/AKT/mTOR signaling in human U87 cells assessed as down regulation of GINS3 gene expression at cytotoxic IC50 measured after 48 hrs relative to control
[3] = Inhibition of RTK/PI3K/AKT/mTOR signaling in human U87 cells assessed as down regulation of ASF1B gene expression at cytotoxic IC50 measured after 48 hrs relative to control
[4] = Inhibition of RTK/PI3K/AKT/mTOR signaling in human U87 cells assessed as up regulation of ribosomal protein S6 kinase A5 gene expression at cytotoxic IC50 measured after 48 hrs relative to control
[5] = Inhibition of RTK/PI3K/AKT/mTOR signaling in human U87 cells assessed as up regulation of CDK5 regulatory subunit associated protein 3 gene expression at cytotoxic IC50 measured after 48 hrs relative to control
[6] = Inhibition of RTK/PI3K/AKT/mTOR signaling in human U87 cells assessed as down regulation of PIK3R4 gene expression at cytotoxic IC50 measured after 48 hrs relative to control
[7] = Inhibition of RTK/PI3K/AKT/mTOR signaling in human U87 cells assessed as up regulation of PMS1 homolog 1, mismatch repair system component gene expression at cytotoxic IC50 measured after 48 hrs relative to control
[8] = Inhibition of RTK/PI3K/AKT/mTOR signaling in human U87 cells assessed as down regulation of CCDC82 gene expression at cytotoxic IC50 measured after 48 hrs relative to control
[9] = Inhibition of RTK/PI3K/AKT/mTOR signaling in human U87 cells assessed as up regulation of IGSF9 gene expression at cytotoxic IC50 measured after 48 hrs relative to control
[10] = Inhibition of RTK/PI3K/AKT/mTOR signaling in human U87 cells assessed as down regulation of RAD51 gene expression at cytotoxic IC50 measured after 48 hrs relative to control
[11] = Inhibition of RTK/PI3K/AKT/mTOR signaling in human U87 cells assessed as up regulation of EIF3H gene expression at cytotoxic IC50 measured after 48 hrs relative to control
[12] = Inhibition of RTK/PI3K/AKT/mTOR signaling in human U87 cells assessed as down regulation of SGMS2 gene expression at cytotoxic IC50 measured after 48 hrs relative to control
[13] = Inhibition of RTK/PI3K/AKT/mTOR signaling in human U87 cells assessed as up regulation of squalene epoxidase gene expression at cytotoxic IC50 measured after 48 hrs relative to control
[14] = Inhibition of RTK/PI3K/AKT/mTOR signaling in human U87 cells assessed as down regulation of GTF2B gene expression at cytotoxic IC50 measured after 48 hrs relative to control
[15] = Inhibition of RTK/PI3K/AKT/mTOR signaling in human U87 cells assessed as up regulation of protein phosphatase 3 catalytic subunit alpha gene expression at cytotoxic IC50 measured after 48 hrs relative to control
[16] = Inhibition of RTK/PI3K/AKT/mTOR signaling in human U87 cells assessed as up regulation of CHML gene expression at cytotoxic IC50 measured after 48 hrs relative to control
[17] = Inhibition of RTK/PI3K/AKT/mTOR signaling in human U87 cells assessed as up regulation of NUAK family kinase 1 gene expression at cytotoxic IC50 measured after 48 hrs relative to control
[18] = Inhibition of RTK/PI3K/AKT/mTOR signaling in human U87 cells assessed as up regulation of HNRNPK gene expression at cytotoxic IC50 measured after 48 hrs relative to control
[19] = Inhibition of RTK/PI3K/AKT/mTOR signaling in human U87 cells assessed as down regulation of GCH1 gene expression at cytotoxic IC50 measured after 48 hrs relative to control
[20] = Inhibition of RTK/PI3K/AKT/mTOR signaling in human U87 cells assessed as down regulation of WDHD1 gene expression at cytotoxic IC50 measured after 48 hrs relative to control
[21] = Inhibition of RTK/PI3K/AKT/mTOR signaling in human U87 cells assessed as up regulation of coiled-coil domain containing 85C gene expression at cytotoxic IC50 measured after 48 hrs relative to control
[22] = Inhibition of RTK/PI3K/AKT/mTOR signaling in human U87 cells assessed as down regulation of PIGS gene expression at cytotoxic IC50 measured after 48 hrs relative to control
[23] = Inhibition of RTK/PI3K/AKT/mTOR signaling in human U87 cells assessed as up regulation of LMNA gene expression at cytotoxic IC50 measured after 48 hrs relative to control
[24] = Inhibition of RTK/PI3K/AKT/mTOR signaling in human U87 cells assessed as down regulation of MAP7D2 gene expression at cytotoxic IC50 measured after 48 hrs relative to control
[25] = Inhibition of RTK/PI3K/AKT/mTOR signaling in human U87 cells assessed as down regulation of ANKRD13A gene expression at cytotoxic IC50 measured after 48 hrs relative to control
[26] = Inhibition of RTK/PI3K/AKT/mTOR signaling in human U87 cells assessed as up regulation of coiled-coil domain containing 47 gene expression at cytotoxic IC50 measured after 48 hrs relative to control
[27] = Inhibition of RTK/PI3K/AKT/mTOR signaling in human U87 cells assessed as up regulation of CECR2, histone acetyl-lysine reader gene expression at cytotoxic IC50 measured after 48 hrs relative to control
[28] = Inhibition of RTK/PI3K/AKT/mTOR signaling in human U87 cells assessed as down regulation of ZBTB41 gene expression at cytotoxic IC50 measured after 48 hrs relative to control
[29] = Inhibition of RTK/PI3K/AKT/mTOR signaling in human U87 cells assessed as down regulation of CTSA gene expression at cytotoxic IC50 measured after 48 hrs relative to control
[30] = Inhibition of RTK/PI3K/AKT/mTOR signaling in human U87 cells assessed as up regulation of SYT1 gene expression at cytotoxic IC50 measured after 48 hrs relative to control
[31] = Inhibition of RTK/PI3K/AKT/mTOR signaling in human U87 cells assessed as up regulation of tensin 3 gene expression at cytotoxic IC50 measured after 48 hrs relative to control
[32] = Inhibition of RTK/PI3K/AKT/mTOR signaling in human U87 cells assessed as up regulation of SYDE1 gene expression at cytotoxic IC50 measured after 48 hrs relative to control

`CC(=O)C(=NNc1ccccc1C#N)C(C)=O` showed a log2FC [1] of -3.32, a log2FC [2] of -1.63 and a log2FC [3] of -1.5. The log2FC [4] was 1.34, the log2FC [5] was 1.1 and the log2FC [6] was -0.775. For the same molecule, the log2FC [7] was 0.835, the log2FC [8] was -0.805 and the log2FC [9] was 1.91. The log2FC [10] was -1.19, the log2FC [11] was 0.405 and the log2FC [12] was -1.21. It also gave a log2FC [13] of 0.797, a log2FC [14] of -0.612 and a log2FC [15] of 0.721. For the same molecule, the log2FC [16] was 1.66, the log2FC [17] was 0.809 and the log2FC [18] was 0.353. The log2FC [19] was -1.17, the log2FC [20] was -0.948 and the log2FC [21] was 0.813. For the same molecule, the log2FC [22] was -0.715, the log2FC [23] was 0.448 and the log2FC [24] was -3.02. For the same molecule, the log2FC [25] was -0.561, the log2FC [26] was 0.912 and the log2FC [27] was 1.43. It also gave a log2FC [28] of -1.52, a log2FC [29] of -1.11 and a log2FC [30] of 1.77. It also gave a log2FC [31] of 0.796 and a log2FC [32] of 1.8.
